The values below come from paper PMC9190513.

By UniProt entry, the sequences of proteins in these tests, tags left out. Where a name states a change or a piece, a line headed by the entry shows the natural chain unless it says otherwise.
UniProt P25054: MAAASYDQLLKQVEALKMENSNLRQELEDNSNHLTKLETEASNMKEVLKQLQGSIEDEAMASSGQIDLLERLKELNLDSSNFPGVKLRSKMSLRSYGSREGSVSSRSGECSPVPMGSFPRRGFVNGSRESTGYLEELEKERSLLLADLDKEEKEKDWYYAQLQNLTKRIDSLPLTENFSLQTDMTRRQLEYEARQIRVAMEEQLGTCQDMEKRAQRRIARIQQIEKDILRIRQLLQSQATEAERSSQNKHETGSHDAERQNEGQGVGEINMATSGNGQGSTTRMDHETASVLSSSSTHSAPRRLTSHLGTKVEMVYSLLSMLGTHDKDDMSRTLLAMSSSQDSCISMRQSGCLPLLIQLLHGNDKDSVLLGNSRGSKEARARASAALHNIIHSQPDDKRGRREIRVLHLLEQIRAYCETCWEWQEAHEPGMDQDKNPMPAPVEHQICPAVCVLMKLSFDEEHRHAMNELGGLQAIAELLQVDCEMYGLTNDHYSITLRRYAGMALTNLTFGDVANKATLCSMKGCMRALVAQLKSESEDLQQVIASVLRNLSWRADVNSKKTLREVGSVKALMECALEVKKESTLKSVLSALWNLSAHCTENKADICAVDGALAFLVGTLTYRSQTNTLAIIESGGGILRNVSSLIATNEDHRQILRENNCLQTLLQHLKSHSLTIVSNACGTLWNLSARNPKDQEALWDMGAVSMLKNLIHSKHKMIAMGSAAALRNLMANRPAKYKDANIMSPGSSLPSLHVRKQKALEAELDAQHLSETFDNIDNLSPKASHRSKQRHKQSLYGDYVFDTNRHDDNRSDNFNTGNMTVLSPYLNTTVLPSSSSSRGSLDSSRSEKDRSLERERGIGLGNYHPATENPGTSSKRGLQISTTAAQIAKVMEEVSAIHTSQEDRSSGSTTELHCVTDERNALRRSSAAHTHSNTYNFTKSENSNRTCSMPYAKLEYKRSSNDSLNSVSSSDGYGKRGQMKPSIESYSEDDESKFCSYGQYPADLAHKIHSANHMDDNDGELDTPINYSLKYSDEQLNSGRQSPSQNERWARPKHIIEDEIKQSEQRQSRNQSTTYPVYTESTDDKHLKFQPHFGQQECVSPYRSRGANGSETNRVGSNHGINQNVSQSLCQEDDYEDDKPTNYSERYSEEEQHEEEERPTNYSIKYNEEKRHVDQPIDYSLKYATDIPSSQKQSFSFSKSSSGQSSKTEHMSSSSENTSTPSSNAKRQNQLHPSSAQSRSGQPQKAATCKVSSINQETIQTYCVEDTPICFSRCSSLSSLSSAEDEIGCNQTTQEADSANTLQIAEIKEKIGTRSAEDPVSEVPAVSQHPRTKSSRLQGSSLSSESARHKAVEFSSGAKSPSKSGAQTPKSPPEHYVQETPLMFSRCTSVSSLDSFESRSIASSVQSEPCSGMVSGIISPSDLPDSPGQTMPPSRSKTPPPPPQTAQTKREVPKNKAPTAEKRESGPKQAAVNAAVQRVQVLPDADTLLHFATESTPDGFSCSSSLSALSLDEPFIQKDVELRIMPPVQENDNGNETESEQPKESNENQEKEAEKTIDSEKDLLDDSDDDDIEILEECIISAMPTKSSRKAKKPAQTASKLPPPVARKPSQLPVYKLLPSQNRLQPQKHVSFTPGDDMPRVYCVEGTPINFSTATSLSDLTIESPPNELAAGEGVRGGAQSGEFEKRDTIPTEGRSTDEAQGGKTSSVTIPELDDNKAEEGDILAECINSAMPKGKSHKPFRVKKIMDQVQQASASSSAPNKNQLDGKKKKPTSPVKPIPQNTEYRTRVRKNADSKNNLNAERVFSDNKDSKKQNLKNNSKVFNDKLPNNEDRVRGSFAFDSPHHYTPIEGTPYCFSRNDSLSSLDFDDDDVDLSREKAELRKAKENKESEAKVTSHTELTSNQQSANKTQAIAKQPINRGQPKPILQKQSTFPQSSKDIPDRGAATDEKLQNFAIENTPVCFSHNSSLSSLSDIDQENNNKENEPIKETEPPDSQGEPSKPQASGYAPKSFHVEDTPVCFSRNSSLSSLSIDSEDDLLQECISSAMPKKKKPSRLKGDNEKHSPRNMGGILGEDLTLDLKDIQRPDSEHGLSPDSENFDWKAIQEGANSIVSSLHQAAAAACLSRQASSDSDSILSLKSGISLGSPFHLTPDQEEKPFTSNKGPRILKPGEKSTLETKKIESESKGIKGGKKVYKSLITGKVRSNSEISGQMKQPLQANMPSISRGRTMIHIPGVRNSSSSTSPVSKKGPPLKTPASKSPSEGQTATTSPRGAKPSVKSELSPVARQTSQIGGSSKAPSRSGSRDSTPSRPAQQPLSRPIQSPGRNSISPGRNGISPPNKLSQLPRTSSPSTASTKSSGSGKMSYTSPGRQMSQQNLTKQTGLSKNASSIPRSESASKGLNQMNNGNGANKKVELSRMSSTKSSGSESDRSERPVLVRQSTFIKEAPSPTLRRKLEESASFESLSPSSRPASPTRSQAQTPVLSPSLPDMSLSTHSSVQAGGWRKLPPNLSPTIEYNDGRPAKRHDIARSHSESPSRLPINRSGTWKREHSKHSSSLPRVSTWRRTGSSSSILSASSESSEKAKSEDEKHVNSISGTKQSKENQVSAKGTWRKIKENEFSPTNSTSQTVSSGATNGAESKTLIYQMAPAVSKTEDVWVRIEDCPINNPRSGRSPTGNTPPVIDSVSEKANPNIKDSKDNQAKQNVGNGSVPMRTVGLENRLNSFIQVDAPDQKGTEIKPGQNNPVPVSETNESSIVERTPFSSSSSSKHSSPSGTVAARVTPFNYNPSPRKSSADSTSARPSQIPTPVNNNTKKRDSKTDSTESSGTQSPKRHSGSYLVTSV
UniProt O15169: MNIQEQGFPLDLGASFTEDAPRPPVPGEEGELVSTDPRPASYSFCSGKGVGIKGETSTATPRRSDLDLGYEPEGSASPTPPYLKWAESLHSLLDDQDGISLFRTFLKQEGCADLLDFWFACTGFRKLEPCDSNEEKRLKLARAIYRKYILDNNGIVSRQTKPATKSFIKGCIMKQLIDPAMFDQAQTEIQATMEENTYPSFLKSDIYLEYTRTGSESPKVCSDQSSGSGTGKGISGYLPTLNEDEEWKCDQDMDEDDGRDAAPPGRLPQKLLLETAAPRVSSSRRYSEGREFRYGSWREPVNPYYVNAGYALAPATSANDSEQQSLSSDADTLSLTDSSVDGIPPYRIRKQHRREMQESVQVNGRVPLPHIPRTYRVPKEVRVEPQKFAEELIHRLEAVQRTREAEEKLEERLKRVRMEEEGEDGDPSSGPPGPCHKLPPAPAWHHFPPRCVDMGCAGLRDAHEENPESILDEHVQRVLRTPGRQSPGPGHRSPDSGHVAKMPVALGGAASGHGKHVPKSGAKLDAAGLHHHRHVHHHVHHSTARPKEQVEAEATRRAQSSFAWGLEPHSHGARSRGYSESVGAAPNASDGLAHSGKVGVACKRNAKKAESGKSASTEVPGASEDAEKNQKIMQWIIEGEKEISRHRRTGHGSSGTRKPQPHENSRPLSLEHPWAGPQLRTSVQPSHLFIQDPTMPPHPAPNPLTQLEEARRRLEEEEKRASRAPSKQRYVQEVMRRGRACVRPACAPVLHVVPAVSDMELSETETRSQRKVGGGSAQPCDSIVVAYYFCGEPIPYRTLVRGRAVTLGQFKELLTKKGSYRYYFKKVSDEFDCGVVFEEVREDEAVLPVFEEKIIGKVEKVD
UniProt P35222: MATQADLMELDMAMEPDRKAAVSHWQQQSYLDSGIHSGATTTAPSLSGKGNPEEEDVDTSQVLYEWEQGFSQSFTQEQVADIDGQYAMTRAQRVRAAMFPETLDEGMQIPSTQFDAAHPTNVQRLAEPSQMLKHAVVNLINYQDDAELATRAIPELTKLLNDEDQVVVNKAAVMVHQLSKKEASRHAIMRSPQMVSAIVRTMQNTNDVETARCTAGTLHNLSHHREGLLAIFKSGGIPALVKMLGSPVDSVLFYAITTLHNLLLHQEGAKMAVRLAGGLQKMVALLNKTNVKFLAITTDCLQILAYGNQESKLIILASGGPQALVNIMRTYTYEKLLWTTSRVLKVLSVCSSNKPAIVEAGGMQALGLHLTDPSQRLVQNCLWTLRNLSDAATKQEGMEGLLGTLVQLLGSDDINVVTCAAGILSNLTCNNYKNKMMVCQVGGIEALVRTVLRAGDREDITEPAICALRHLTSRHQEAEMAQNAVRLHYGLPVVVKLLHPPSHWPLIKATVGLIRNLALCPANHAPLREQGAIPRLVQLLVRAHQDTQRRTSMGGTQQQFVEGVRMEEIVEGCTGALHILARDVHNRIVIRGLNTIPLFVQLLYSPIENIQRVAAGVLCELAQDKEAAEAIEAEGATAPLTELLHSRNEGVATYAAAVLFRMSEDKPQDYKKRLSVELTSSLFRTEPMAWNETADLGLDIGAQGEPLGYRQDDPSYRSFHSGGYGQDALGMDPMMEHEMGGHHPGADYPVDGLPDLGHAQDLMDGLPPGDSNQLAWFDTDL

Read-outs that look alike come from different tables or passages of the source. Results are given in words; binding and its absence hold for the method and conditions named. In cells and extracts the contact can be indirect. Some entries that bind do so weakly or less than the wild type. For some assays here: Sequences can lack the tags named with a protein.

Assay [1] has as its target adenomatous polyposis coli (APC) (human (endogenous in HEK293T)) (UniProt P25054). Description: co-IP; endogenous APC precipitated with anti-APC from lysates of HEK293T cells transfected with HA-Axin1-WT or K147R and treated with Wnt3a-conditioned medium for 30 minutes; Axin1 detected with anti-HA (Figure 5B).
Assay [2] has as its target HA-Axin1-WT (not stated (human or mouse cDNA cloned)) (UniProt O15169). Description: co-IP; HA-Axin1 (WT or K147R) precipitated with anti-HA from lysates of transfected HEK293T cells, western blot; co-IP buffer 50 mM Tris pH 8.0, 0.5% NP-40, 1 mM EDTA, 150 mM NaCl or RIPA, 4°C; cells with or without Wnt3a-conditioned medium, SIRT4 overexpression or MG132 (Figures 2J, 5A, 5D, 5G). On the technique in general: Immunoblotting shows a protein as a band on a membrane.

Assay [3] addresses HA-Axin1-K147R (not stated (human or mouse cDNA cloned)) (UniProt O15169). The description is as above.
Assay [4] addresses HA-Axin1-WT (not stated (human or mouse cDNA cloned)) (UniProt O15169). The assay is described as above. The source holds these as a separate data set.

Take HA-Axin1-WT (from UniProt O15169 1-862): in assay [1], the binding entry is reported as “binds”.
Consider “HA-Axin1-K147R (from UniProt O15169 1-862)”, for which, in assay [1], the binding entry was “binds”.
On to “phosphorylated β-catenin (from UniProt P35222 1-781)”, for which the binding result in assay [2] and in assay [3] was “binds” throughout.

B1: SIRT4-Myc (enzyme, UniProt Q9Y6E7 29-314)
chain: IGLFVPASPPLDPEKVKELQRFITLSKRLLVMTGAGISTESGIPDYRSEKVGLYARTDRRPIQHGDFVRSAPIRQRYWARNFVGWPQFSSHQPNPAHWALSTWEKLGKLYWLVTQNVDALHTKAGSRRLTELHGCMDRVLCLDCGEQTPRGVLQERFQVLNPTWSAEAHGLAPDGDVFLSEEQVRSFQVPTCVQCGGHLKPDVVFFGDTVNPDKVDFVHKRVKEADSLLVVGSSLQVYSGYRFILTAWEKKLPIAILNIGPTRSDDLACLKLNSRCGELLPLIDPC
Regarding B1, the binding entry in assay [4] is on record as “binds”.
